The supplement of paper PMC7661543
± gives the standard deviation of the averaged measurements. Differences between knockout arms are mostly noise.

System: BT-20
Experiment: relative cell number vs DMSO control (72 h) (% of DMSO); higher = less growth inhibition (more cells)
Experimental: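 QMAP-Seq: a pool of 5 breast cancer cell lines (ZR-75-1, SKBR3, HCC-38, MDA-MB-231, BT-20), each carrying 12 doxycycline-inducible Cas9 sgRNA perturbations (11 knockouts plus non-targeting sgNT), was treated with compounds for 72 h at four 10-fold doses (10 nM-10 uM or 1 nM-1 uM range). Barcodes were amplified and sequenced, and cell number was interpolated from 293T spike-in standard curves. The result is expressed as % of the median of DMSO wells. Two biological replicates.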

C#Cc1cccc(Nc2ncnc3cc(OCCOC)c(OCCOC)cc23)c1 [Erlotinib]
Details | relative cell number
sgRNA knockout: sgATF3, 10 nM | 114 ± 28
sgRNA knockout: sgATF3, 100 nM | 96.5 ± 15
sgRNA knockout: sgATF3, 1000 nM | 98.1 ± 4
sgRNA knockout: sgATF3, 10000 nM | 73.3 ± 16
sgRNA knockout: sgATF4, 10 nM | 142 ± 10
sgRNA knockout: sgATF4, 100 nM | 83.2 ± 10
sgRNA knockout: sgATF4, 1000 nM | 94.2 ± 8
sgRNA knockout: sgATF4, 10000 nM | 81.5 ± 14
sgRNA knockout: sgATF6, 10 nM | 123 ± 39
sgRNA knockout: sgATF6, 100 nM | 102 ± 14
sgRNA knockout: sgATF6, 1000 nM | 97.1 ± 2.5
sgRNA knockout: sgATF6, 10000 nM | 75.6 ± 21
sgRNA knockout: sgATG7, 10 nM | 124 ± 18
sgRNA knockout: sgATG7, 100 nM | 89.8 ± 5.4
sgRNA knockout: sgATG7, 1000 nM | 106 ± 18
sgRNA knockout: sgATG7, 10000 nM | 82.2 ± 2.4
sgRNA knockout: sgERN1, 10 nM | 112 ± 8.7
sgRNA knockout: sgERN1, 100 nM | 88.5 ± 6.3
sgRNA knockout: sgERN1, 1000 nM | 102 ± 21
sgRNA knockout: sgERN1, 10000 nM | 73.9 ± 3.3
sgRNA knockout: sgHSF1, 10 nM | 128 ± 19
sgRNA knockout: sgHSF1, 100 nM | 97.4 ± 2.4
sgRNA knockout: sgHSF1, 1000 nM | 93.1 ± 5.2
sgRNA knockout: sgHSF1, 10000 nM | 81.3 ± 12
sgRNA knockout: sgHSF2, 10 nM | 109 ± 6.5
sgRNA knockout: sgHSF2, 100 nM | 88.4 ± 9.8
sgRNA knockout: sgHSF2, 1000 nM | 95.3 ± 5.2
sgRNA knockout: sgHSF2, 10000 nM | 75.3 ± 3.4
sgRNA knockout: sgKEAP1, 10 nM | 111 ± 32
sgRNA knockout: sgKEAP1, 100 nM | 98.9 ± 2.6
sgRNA knockout: sgKEAP1, 1000 nM | 95.9 ± 6
sgRNA knockout: sgKEAP1, 10000 nM | 72.9 ± 5.2
sgRNA knockout: sgNFE2L2, 10 nM | 107 ± 10
sgRNA knockout: sgNFE2L2, 100 nM | 87.9 ± 1.5
sgRNA knockout: sgNFE2L2, 1000 nM | 108 ± 24
sgRNA knockout: sgNFE2L2, 10000 nM | 75.8 ± 13
sgRNA knockout: sgSLC35F2, 10 nM | 116 ± 8.8
sgRNA knockout: sgSLC35F2, 100 nM | 100 ± 13
sgRNA knockout: sgSLC35F2, 1000 nM | 85.8 ± 12
sgRNA knockout: sgSLC35F2, 10000 nM | 83.3 ± 19
sgRNA knockout: sgXBP1, 10 nM | 108 ± 24
sgRNA knockout: sgXBP1, 100 nM | 81 ± 3.2
sgRNA knockout: sgXBP1, 1000 nM | 108.2 ± 0.2
sgRNA knockout: sgXBP1, 10000 nM | 68.7 ± 7.8

Nc1ccn([C@@H]2O[C@H](CO)[C@@H](O)C2(F)F)c(=O)n1 [Gemcitabine]
Details | relative cell number
sgRNA knockout: sgATF3, 10 nM | 54.89 ± 0.53
sgRNA knockout: sgATF3, 100 nM | 26.9 ± 0.48
sgRNA knockout: sgATF3, 1000 nM | 25.5 ± 4.1
sgRNA knockout: sgATF3, 10000 nM | 27.2 ± 6.8
sgRNA knockout: sgATF4, 10 nM | 70.3 ± 10
sgRNA knockout: sgATF4, 100 nM | 33.08 ± 0.24
sgRNA knockout: sgATF4, 1000 nM | 34.82 ± 0.17
sgRNA knockout: sgATF4, 10000 nM | 26.6 ± 2.4
sgRNA knockout: sgATF6, 10 nM | 75.6 ± 6.6
sgRNA knockout: sgATF6, 100 nM | 28.4 ± 3.2
sgRNA knockout: sgATF6, 1000 nM | 34.3 ± 7
sgRNA knockout: sgATF6, 10000 nM | 30 ± 3.6
sgRNA knockout: sgATG7, 10 nM | 59.5 ± 11
sgRNA knockout: sgATG7, 100 nM | 20.5 ± 1.6
sgRNA knockout: sgATG7, 1000 nM | 28.3 ± 2.9
sgRNA knockout: sgATG7, 10000 nM | 27.6 ± 4.3
sgRNA knockout: sgERN1, 10 nM | 60.5 ± 11
sgRNA knockout: sgERN1, 100 nM | 28.8 ± 0.069
sgRNA knockout: sgERN1, 1000 nM | 34.1 ± 1.3
sgRNA knockout: sgERN1, 10000 nM | 25.7 ± 5.2
sgRNA knockout: sgHSF1, 10 nM | 71 ± 2.9
sgRNA knockout: sgHSF1, 100 nM | 25.8 ± 2.6
sgRNA knockout: sgHSF1, 1000 nM | 29.3 ± 18
sgRNA knockout: sgHSF1, 10000 nM | 27.6 ± 4.9
sgRNA knockout: sgHSF2, 10 nM | 60.6 ± 4.8
sgRNA knockout: sgHSF2, 100 nM | 31.2 ± 1.2
sgRNA knockout: sgHSF2, 1000 nM | 33 ± 2.1
sgRNA knockout: sgHSF2, 10000 nM | 25.2 ± 4.1
sgRNA knockout: sgKEAP1, 10 nM | 61.1 ± 9
sgRNA knockout: sgKEAP1, 100 nM | 28.3 ± 3.5
sgRNA knockout: sgKEAP1, 1000 nM | 31.5 ± 7.2
sgRNA knockout: sgKEAP1, 10000 nM | 28.1 ± 2.6
sgRNA knockout: sgNFE2L2, 10 nM | 73.6 ± 1.5
sgRNA knockout: sgNFE2L2, 100 nM | 28.8 ± 7.6
sgRNA knockout: sgNFE2L2, 1000 nM | 36.1 ± 0.7
sgRNA knockout: sgNFE2L2, 10000 nM | 24.3 ± 4.5
sgRNA knockout: sgSLC35F2, 10 nM | 69.3 ± 7.2
sgRNA knockout: sgSLC35F2, 100 nM | 27.8 ± 2.8
sgRNA knockout: sgSLC35F2, 1000 nM | 32.7 ± 2.8
sgRNA knockout: sgSLC35F2, 10000 nM | 29.7 ± 1.1
sgRNA knockout: sgXBP1, 10 nM | 62.2 ± 10
sgRNA knockout: sgXBP1, 100 nM | 31 ± 7.2
sgRNA knockout: sgXBP1, 1000 nM | 31.5 ± 14
sgRNA knockout: sgXBP1, 10000 nM | 27.64 ± 0.18

Cc1cc2c(C(C)C)c(O)c(O)c(C=O)c2c(O)c1-c1c(C)cc2c(C(C)C)c(O)c(O)c(C=O)c2c1O [Gossypol]
Details | relative cell number
sgRNA knockout: sgATF3, 10 nM | 97.4 ± 7.1
sgRNA knockout: sgATF3, 100 nM | 103 ± 5.9
sgRNA knockout: sgATF3, 1000 nM | 105 ± 2.2
sgRNA knockout: sgATF3, 10000 nM | 44.6 ± 2.7
sgRNA knockout: sgATF4, 10 nM | 105 ± 22
sgRNA knockout: sgATF4, 100 nM | 102 ± 4.3
sgRNA knockout: sgATF4, 1000 nM | 114 ± 16
sgRNA knockout: sgATF4, 10000 nM | 48 ± 4.6
sgRNA knockout: sgATF6, 10 nM | 109.2 ± 0.62
sgRNA knockout: sgATF6, 100 nM | 109 ± 28
sgRNA knockout: sgATF6, 1000 nM | 113 ± 5.8
sgRNA knockout: sgATF6, 10000 nM | 49.7 ± 8.3
sgRNA knockout: sgATG7, 10 nM | 98 ± 26
sgRNA knockout: sgATG7, 100 nM | 101 ± 5.1
sgRNA knockout: sgATG7, 1000 nM | 106 ± 5.2
sgRNA knockout: sgATG7, 10000 nM | 52.4 ± 7.8
sgRNA knockout: sgERN1, 10 nM | 97.1 ± 1.5
sgRNA knockout: sgERN1, 100 nM | 106 ± 2.8
sgRNA knockout: sgERN1, 1000 nM | 97.3 ± 5.2
sgRNA knockout: sgERN1, 10000 nM | 46.1 ± 3.6
sgRNA knockout: sgHSF1, 10 nM | 102 ± 21
sgRNA knockout: sgHSF1, 100 nM | 100 ± 6.3
sgRNA knockout: sgHSF1, 1000 nM | 112 ± 5
sgRNA knockout: sgHSF1, 10000 nM | 45.5 ± 2.8
sgRNA knockout: sgHSF2, 10 nM | 104 ± 3.7
sgRNA knockout: sgHSF2, 100 nM | 102 ± 18
sgRNA knockout: sgHSF2, 1000 nM | 104 ± 6.4
sgRNA knockout: sgHSF2, 10000 nM | 46.4 ± 2.6
sgRNA knockout: sgKEAP1, 10 nM | 96.4 ± 1.1
sgRNA knockout: sgKEAP1, 100 nM | 84 ± 9.2
sgRNA knockout: sgKEAP1, 1000 nM | 105 ± 4.6
sgRNA knockout: sgKEAP1, 10000 nM | 46.4 ± 3.4
sgRNA knockout: sgNFE2L2, 10 nM | 113.5 ± 0.64
sgRNA knockout: sgNFE2L2, 100 nM | 96.6 ± 7.8
sgRNA knockout: sgNFE2L2, 1000 nM | 114 ± 12
sgRNA knockout: sgNFE2L2, 10000 nM | 45.23 ± 0.3
sgRNA knockout: sgSLC35F2, 10 nM | 110 ± 21
sgRNA knockout: sgSLC35F2, 100 nM | 122 ± 9.5
sgRNA knockout: sgSLC35F2, 1000 nM | 115 ± 4.8
sgRNA knockout: sgSLC35F2, 10000 nM | 46.1 ± 3
sgRNA knockout: sgXBP1, 10 nM | 100 ± 14
sgRNA knockout: sgXBP1, 100 nM | 86.2 ± 23
sgRNA knockout: sgXBP1, 1000 nM | 107 ± 16
sgRNA knockout: sgXBP1, 10000 nM | 49.7 ± 1.5
